Measurements taken from article PMC12040169 (PLOS Biology, 2025).
This is one part of the list.

What follows are molecules tested on T1, CTL2-GFP (C. trachomatis L2/434/Bu, GFP-expressing). Settings: bulk GFP, single well; 28.5 h, 10 µM; inhibitor.
T1 construct: L2/434/Bu, GFP-expressing
Parameters: species or system HeLa; Intracellular C. trachomatis growth in HeLa cells, bulk GFP fluorescence relative to DMSO

| Compound | % of control remaining [%] |
| --- | --- |
| C[S+]([O-])CCNC(=O)c1cnn(-c2ccc(F)cc2)c1 (centres unmarked) [CBK283245] | 117.931 |
| CCn1c(=O)n(CC(=O)N2CCc3ccccc32)c2cccnc21 [CBK283826] | 140.985 |
| O=C(O)C1CSC(c2cc3ccccc3o2)N1 (centres unmarked) [CBK019502] | 100.403 |
| Nc1ncc(-c2cccc3ccccc23)nc1Nc1ccc2[nH]ccc2c1 [CBK063659] | 186.934 |
| C#CCNS(=O)(=O)c1ccc(C(=O)Nc2ccnn2Cc2ccccc2)cc1 [CBK297727] | 122.062 |
| O=C(O)C1CCN(C(=O)c2ccc3nsnc3c2)CC1 [CBK057344] | 118.776 |
| Cc1cc(S(=O)(=O)N(CCC#N)c2ccccc2)c(C)cc1Cl [CBK043618] | 144.51 |
| COCCc1noc(CC2CCN(c3ncc(Cl)cn3)CC2)n1 [CBK304172] | 150.833 |
| COc1ccc(NC(=O)C2CN(S(=O)(=O)c3ccccc3)CCN2S(=O)(=O)c2ccccc2)cc1 (centres unmarked) [CBK262500] | 77.4743 |
| NC(=O)c1c(NC(=O)COc2ccccc2[N+](=O)[O-])sc2c1CCC2 [CBK262819] | 101.564 |
| COc1ccc(-c2cc(C(=O)Nc3nc4c(OC)cccc4s3)cnc2-c2ccccc2)cn1 [CBK036681] | 87.5767 |
| COc1ccc(CCCC(=O)N2CCN(c3ccccc3OC)CC2)cc1OC [CBK091495] | 100 |
| O=C(CSc1nc2ccccc2o1)N1c2ccccc2Sc2ccccc21 [CBK221524] | 79.6863 |
| O=C(C1C2CCCCC21)N1CCC(Oc2ccc(F)cc2)CC1 (centres unmarked) [CBK282065] | 118.001 |
| Cc1ccccc1NC(=O)CC1c2ccccc2CC(C)(C)N1C (centres unmarked) [CBK262567] | 105.504 |
| CCCn1nc(C)c(CN(C)Cc2n[nH]c3c2CCCC3)c1C [CBK282600] | 145.098 |
| COc1ccc(N2CCN(Cc3cc([N+](=O)[O-])ccc3Cl)CC2)cc1 [CBK261571] | 100 |
| CC(=O)Nc1cccc(Oc2nccnc2/C=C/c2ccccc2)c1 [CBK106881] | 100 |
| O=C(O)CCCCCN1C(=O)C2CC=CCC2C1=O (centres unmarked) [CBK286534] | 124.451 |
| CCOC(=O)c1csc(C2CCCN2C(=O)CCc2ccccc2O)n1 (centres unmarked) [CBK305448] | 97.3822 |
| Cc1ccc(-c2nnc3ccc(SCC(=O)NC4CCCC4)nn23)cc1 [CBK287523] | 146.005 |
| Cc1c(OCCC2CCCCN2C)ccc2c(=O)cc(N3CCOCC3)oc12 (centres unmarked) [CBK016644] | 148.394 |
| CCC(=O)Nc1ccccc1C(=O)C(=O)O [CBK219398] | 86.0208 |
| CC(C)S(=O)(=O)n1ccn(-c2ccc3c(c2)OCO3)c1=O [CBK106630] | 100 |
| O=C(C1=C(O)C(=O)N(CCCN2CCOCC2)C1c1cccnc1)c1cccs1 (centres unmarked) [CBK264555] | 127.386 |
| CN(C(=O)c1ccc(-n2nncc2-c2ccccc2)cc1)c1ccccc1 [CBK288107] | 134.744 |
| O=C(Nc1nc(-c2ccccc2)cs1)c1ccc(Br)cc1 [CBK068003] | 131.435 |

| Compound | % of control remaining [%] |
| --- | --- |
| COc1ccc(CCC(=O)N2CCCC2c2cc(Nc3nccs3)cc(C)n2)cc1 (centres unmarked) [CBK285939] | 101.851 |
| Cc1ncc2c(n1)[C@@H]1CN(C(=O)Cc3cccs3)C[C@@H]1CC2 [CBK284491] | 112.132 |
| CCS(=O)(=O)Nc1cc(Cl)ccc1C [CBK111350] | 178.634 |
| Cc1ccc(CN(CCN(C)C)Cc2c(C)nc3sccn23)o1 [CBK283229] | 91.3642 |
| CN1C(=O)CN(C2CCCCC2)C1=O [CBK116320] | 125.506 |
| O=C(O)C1CCCN1C(=O)NCc1c(Cl)cccc1Cl (centres unmarked) [CBK161383] | 135.587 |
| CC1CCC(C(N)=O)CN1c1cc(=O)n2ccccc2n1 (centres unmarked) [CBK304835] | 98.9125 |
| COc1ccc(-n2c(Cc3ccccc3)nnc2SCC(=O)c2ccccc2)cc1 [CBK265989] | 117.952 |
| O=C(CSCc1ccccc1Br)Nc1ccccc1-c1ccccc1 [CBK265959] | 121.481 |
| CCCC/C=C/c1cncc(N[C@@H](C)c2ccccc2)n1 [CBK065472] | 105.915 |
| COc1ccc(C(=O)N2CCN(c3nc4c(s3)c(C)nn4C)CC2)cc1 [CBK307457] | 91.3637 |
| CCN(CC)C(=O)[C@@H](C)C1CC[C@@]2(C)CC[C@H](NC(=O)C3CC3)[C@@H](C)[C@@H]2[C@H]1O (some centres unmarked) [CBK289443] | 103.497 |
| C=C(C)CN1CCN(C(=O)c2c(C)oc3ccc(O)cc23)CC1 [CBK282626] | 109.177 |
| CC(C)NC(=O)c1sc2ccccc2c1C1CN(Cc2cccc3ncccc23)CCO1 (centres unmarked) [CBK285879] | 109.654 |
| CCN(CC)C(=O)C1CCCN(C(=O)NCc2ccc(Cl)c(Cl)c2)C1 (centres unmarked) [CBK156119] | 104.672 |
| N#C/C(=C\c1cn(CCC(N)=O)c2ccccc12)Sc1nc2ccccc2s1 [CBK267897] | 95.3496 |
| CCc1cnc(CN(C)C2CCN(CC(=O)Nc3cccnc3)C2)o1 (centres unmarked) [CBK305358] | 171.319 |
| O=C(NCc1ccccc1)c1ccno1 [CBK200197] | 115.38 |
| Cc1cc(CNC(=O)N2CCCCC2CO)no1 (centres unmarked) [CBK156160] | 112.897 |
| CS(=O)(=O)N1CCCCCC1c1cc(-c2cccs2)on1 (centres unmarked) [CBK284670] | 109.554 |
| CCn1cc(S(=O)(=O)Nc2cccc(CCCC(=O)O)c2)cn1 [CBK304717] | 104.87 |
| COc1ccccc1C(=O)N1CCN(C(=O)CN2CCCC2)CC1 [CBK024836] | 121.866 |
| FC(F)(F)c1ccc(Sc2cccs2)nc1 [CBK115236] | 118.95 |
| CC(=O)NC(Cc1c[nH]c2ccccc12)C(=O)N(C)Cc1cnn(C)c1 (centres unmarked) [CBK305274] | 128.944 |
| CC1CCc2c(sc(NC(=O)c3cnccn3)c2C(N)=O)C1 (centres unmarked) [CBK265466] | 125.019 |
| Fc1ccc(NC(=S)NNC(=S)Nc2cccc3ccccc23)c(F)c1 [CBK266982] | 136.942 |
| O=C(CCS(=O)(=O)c1nc(-c2ccccc2)cc(C(F)(F)F)n1)Nc1ccc(Cl)cc1Cl [CBK268717] | 116.387 |

| Compound | % of control remaining [%] |
| --- | --- |
| CCOc1cccc(-c2cn3ccnc3c(NC3CC3)n2)c1 [CBK066736] | 151.426 |
| O=C(Nc1nc2ccccc2s1)c1cc([N+](=O)[O-])ccc1Cl [CBK072428] | 120.297 |
| Cc1ccc(SCc2ccc(C(=O)Nc3ccccc3C(=O)N3CCCC3)cc2)cc1 [CBK268217] | 89.8746 |
| CC(C)Nc1nccnc1-c1cccnc1 [CBK037054] | 165.204 |
| O=C(c1ccc(F)cc1)N1C[C@H](c2ccsc2)[C@H]2CN(Cc3cccs3)CC[C@H]21 [CBK285636] | 75.9274 |
| Cc1c(C(=O)NC(C)c2cc3ccccc3o2)cnn1C (centres unmarked) [CBK283074] | 173.858 |
| COc1ccccc1C1(NC(=O)CCn2nccc2C)CCCC1 [CBK283628] | 110.976 |
| O=C(CSc1ncnc2c1oc1ccccc12)NC1CCCCC1 [CBK287396] | 160.204 |
| COc1ccc(CNC(=O)c2nc(-c3ccccn3)no2)cc1 [CBK287877] | 118.807 |
| CN(C)C(=O)c1cccc(CNc2ncnc3c2cnn3CCC#N)c1 [CBK305955] | 106.949 |
| CN(C)CC(=O)N1CCN(c2cncc(-c3ccc(O)cc3)n2)CC1 [CBK126921T] | 102.655 |
| CCOC(=O)c1ccc(N/C=C(\C#N)c2nc(-c3cc4ccccc4oc3=O)cs2)cc1 [CBK262356] | 118.066 |
| NC1=NNC2=C(c3cccc(Cl)c3)NNN12 [CBK093661] | 112.615 |
| COc1ccc(C(=O)NC(CC(=O)O)c2ccc(OC)cc2)cc1 (centres unmarked) [CBK266188] | 193.402 |
| CN1CCCC(Cc2cc(-c3ccccc3)no2)(C(=O)N(C)C)C1 (centres unmarked) [CBK281674] | 106.27 |
| O=[N+]([O-])c1ccc(-c2nc(NCc3cccnc3)c3ccccc3n2)cc1 [CBK264788] | 116.309 |
| COc1cc(C(=O)N2CCC3(CC2)CC(=O)c2cc(CN4CCOCC4)ccc2O3)cc(OC)c1C [CBK169182] | 121.752 |
| c1cncc(CCNc2nccnc2-c2cccnc2)c1 [CBK037380] | 99.2629 |
| COc1cc(Nc2cc(-c3ccc4c(c3)OCO4)ncn2)cc(OC)c1OC [CBK090704] | 127.781 |
| Cc1nc(NS(=O)(=O)/C=C/c2ccccc2)sc1C(=O)O [CBK045553] | 97.3873 |
| CCOC(=O)C(NC(=O)c1cc[nH]c(=O)c1)c1cccc(C)c1C (centres unmarked) [CBK304174] | 110.739 |
| CCCN1C(=O)[C@@H]2[C@@H](CCN2C(=O)C(=O)O)N(Cc2cccs2)C1=O [CBK289277] | 134.289 |
| Cn1c(CO)nnc1[C@H]1C[C@@H](NC(=O)CCc2ccc(F)cc2F)C1 [CBK306796] | 122.833 |
| COc1ccc(S(=O)(=O)Nc2cccc(C(=O)Nc3ccc(F)cc3)c2)cc1OC [CBK038982] | 83.624 |
| CN(Cc1ccccc1)CC(O)c1ccc2c(c1)CCCN2C(=O)c1ccccc1F (centres unmarked) [CBK286278] | 122.156 |
| CCOc1ccc2[nH]c(C(=O)N(C)CCN3CCCCC3)c(C)c2c1 [CBK282699] | 141.234 |
